Laboratory results from patent US20070202054A1, “Inhalant Formulation Containing Sulfoalkyl Ether Cyclodextrin and Corticosteroid” (priority 2003, published 2007).
At least one structure is not confirmed: it was looked up by name or label, or the drawing left a doubt.

Experiment: Thermal stability of budesonide isomers with and without SBE7-β-CD (Example 13)
Assay type: physicochemical
Conditions: 60° C., pH 6 w/ CAPTISOL

CCCC1O[C@@H]2C[C@H]3[C@@H]4CCC5=CC(=O)C=C[C@]5(C)[C@H]4[C@@H](O)C[C@]3(C)[C@]2(C(=O)CO)O1 (stereo partly drawn) [Budesonide, (R,S)-11β,16α,17,21-tetrahydroxypregna-1,4-diene-3,20-dione cyclic 16,17-acetal with butyraldehyde]
R/S rate constant ratio: 4.60
